From doi:10.1101/2020.06.22.164350
No constants are given. Whether binding was seen depends on the method and setting. Binding seen in cells or lysates may run through a third protein. Some results given as binding are weak or reduced against the parent protein; the word gives no strength.

Sequences of proteins named here, by UniProt entry; tags and fusion partners are left off.
UniProt Q13547: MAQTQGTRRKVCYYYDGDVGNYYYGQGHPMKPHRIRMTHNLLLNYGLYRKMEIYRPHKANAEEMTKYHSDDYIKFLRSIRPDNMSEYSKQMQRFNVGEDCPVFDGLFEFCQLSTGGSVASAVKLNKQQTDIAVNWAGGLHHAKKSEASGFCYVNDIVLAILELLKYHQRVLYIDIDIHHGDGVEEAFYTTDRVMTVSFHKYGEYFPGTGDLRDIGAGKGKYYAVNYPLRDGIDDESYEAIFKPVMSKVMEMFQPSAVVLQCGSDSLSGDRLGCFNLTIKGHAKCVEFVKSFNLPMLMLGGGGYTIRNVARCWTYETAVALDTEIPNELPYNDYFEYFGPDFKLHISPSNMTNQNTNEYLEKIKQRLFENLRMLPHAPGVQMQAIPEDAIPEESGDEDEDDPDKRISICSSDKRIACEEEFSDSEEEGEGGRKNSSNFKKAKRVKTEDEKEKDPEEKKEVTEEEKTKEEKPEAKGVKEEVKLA

Columns and labels:
[1] = molecular target: T1, Sin3a (human (endogenous in THP-1)) (UniProt Q96ST3); test: co-IP
T1 sequence: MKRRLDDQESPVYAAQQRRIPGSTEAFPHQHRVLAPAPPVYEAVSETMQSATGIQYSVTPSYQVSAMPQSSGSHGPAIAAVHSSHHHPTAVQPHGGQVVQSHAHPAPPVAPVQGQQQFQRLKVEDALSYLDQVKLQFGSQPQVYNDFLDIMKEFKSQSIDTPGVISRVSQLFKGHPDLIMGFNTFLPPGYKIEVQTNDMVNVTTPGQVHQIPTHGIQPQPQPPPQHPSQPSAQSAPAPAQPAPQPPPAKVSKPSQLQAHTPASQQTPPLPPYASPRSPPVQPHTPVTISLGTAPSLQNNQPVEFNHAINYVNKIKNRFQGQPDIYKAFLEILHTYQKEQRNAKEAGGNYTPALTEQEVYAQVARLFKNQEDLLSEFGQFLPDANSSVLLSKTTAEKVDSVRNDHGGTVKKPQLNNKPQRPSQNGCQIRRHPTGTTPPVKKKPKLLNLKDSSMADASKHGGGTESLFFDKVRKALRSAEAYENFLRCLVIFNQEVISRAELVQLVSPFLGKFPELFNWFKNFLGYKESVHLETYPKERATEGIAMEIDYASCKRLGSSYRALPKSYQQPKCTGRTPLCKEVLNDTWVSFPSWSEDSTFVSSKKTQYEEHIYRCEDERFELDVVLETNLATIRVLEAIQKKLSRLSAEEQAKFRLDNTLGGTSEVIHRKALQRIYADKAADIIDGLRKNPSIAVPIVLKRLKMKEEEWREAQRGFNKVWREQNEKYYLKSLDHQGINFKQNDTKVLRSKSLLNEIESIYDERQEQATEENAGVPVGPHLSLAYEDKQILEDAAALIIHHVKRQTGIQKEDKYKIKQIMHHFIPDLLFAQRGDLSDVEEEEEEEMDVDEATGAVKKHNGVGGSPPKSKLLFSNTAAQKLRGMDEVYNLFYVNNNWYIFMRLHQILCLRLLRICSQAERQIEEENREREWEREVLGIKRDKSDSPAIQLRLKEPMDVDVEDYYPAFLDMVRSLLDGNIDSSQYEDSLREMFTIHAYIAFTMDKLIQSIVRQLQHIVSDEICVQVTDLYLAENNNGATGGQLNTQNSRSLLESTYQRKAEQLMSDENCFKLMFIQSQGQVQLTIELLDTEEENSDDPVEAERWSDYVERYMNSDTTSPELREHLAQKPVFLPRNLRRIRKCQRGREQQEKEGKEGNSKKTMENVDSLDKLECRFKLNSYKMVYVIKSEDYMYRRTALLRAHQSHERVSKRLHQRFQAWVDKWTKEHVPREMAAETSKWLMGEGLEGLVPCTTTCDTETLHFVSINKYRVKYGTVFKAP

[2] = molecular target: HDAC1 (human (endogenous in THP-1)) (UniProt Q13547); test: co-IP

B1: ZBTB25 (protein, UniProt P24278 1-435)
chain: MDTASHSLVLLQQLNMQREFGFLCDCTVAIGDVYFKAHRAVLAAFSNYFKMIFIHQTSECIKIQPTDIQPDIFSYLLHIMYTGKGPKQIVDHSRLEEGIRFLHADYLSHIATEMNQVFSPETVQSSNLYGIQISTTQKTVVKQGLEVKEAPSSNSGNRAAVQGDHPQLQLSLAIGLDDGTADQQRACPATQALEEHQKPPVSIKQERCDPESVISQSHPSPSSEVTGPTFTENSVKIHLCHYCGERFDSRSNLRQHLHTHVSGSLPFGVPASILESNDLGEVHPLNENSEALECRRLSSFIVKENEQQPDHTNRGTTEPLQISQVSLISKDTEPVELNCNFSFSRKRKMSCTICGHKFPRKSQLLEHMYTHKGKSYRYNRCQRFGNALAQRFQPYCDSWSDVSLKSSRLSQEHLDLPCALESELTQENVDTILVE
- binding [1]: binds
- binding [2]: binds
